Laboratory results as given in the supplement of paper PMC6078165.
Values are relative to the signal before dosing, not to a vehicle control; the signal also falls without drug.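 Fibroblast labels denote human fibroblasts, mainly primary ones from uterus (C12385, HUF), lung (H6013), bone (Hs27A), adrenal (HADF) and skin (WS1), plus mammary HMF and breast cancer-associated Hs343T. Cancer cells are basal-like or mesenchymal-like triple-negative breast cancer lines. A hit is a response shift exceeding 3x replicate standard deviation. The tissue of the other fibroblasts is not given here.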

System: Hs578T
Test: relative JC-1 red fluorescence (viability) vs pre-drug, coculture with fibroblast (fraction); higher = more viable cancer cells
Procedure: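 JC-1 labelled TNBC cells cocultured 1:1 (1,500 cells each) with CellTrace Violet stained primary or stromal fibroblasts in 384-well plates in FluoroBrite medium, treated with one of 42 anticancer drugs at 0.1, 1, 10 or 100 uM. JC-1 red fluorescence (mitochondrial integrity in cancer cells only) was read by plate reader every 8 h for 72 h. Values are normalised to each well's pre-drug value. The stock of one drug was tenfold lower, so its dose labels may be too high.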

CC(=O)O[C@H]1C(=O)[C@@]2(C)[C@H]([C@H](OC(=O)c3ccccc3)[C@]3(O)C[C@H](OC(=O)[C@H](O)[C@@H](NC(=O)c4ccccc4)c4ccccc4)C(C)=C1C3(C)C)[C@]1(OC(C)=O)CO[C@@H]1C[C@@H]2O [Paclitaxel]
relative JC-1 red fluorescence
Settings	8 h	16 h	24 h	32 h	40 h	48 h	56 h	64 h	72 h
0.1 µM	0.863	0.753	0.711	0.672	0.615	0.591	0.584	0.561	0.57
1 µM	0.839	0.748	0.723	0.679	0.625	0.59	0.593	0.581	0.587
10 µM	0.921	0.7992	0.724	0.661	0.59	0.554	0.542	0.529	0.543

relative JC-1 red fluorescence
Settings	8 h	16 h	24 h	32 h	40 h	48 h	56 h	64 h	72 h
0.1 µM, coculture fibroblast: C12385	0.855	0.725	0.676	0.547	0.468	0.444	0.43	0.448	0.462
0.1 µM, coculture fibroblast: H6013	0.918	0.813	0.775	0.698	0.622	0.629	0.628	0.64	0.634
0.1 µM, coculture fibroblast: H6019	0.79	0.651	0.639	0.543	0.5056	0.493	0.487	0.49	0.49
0.1 µM, coculture fibroblast: H6076	0.9264	0.827	0.761	0.713	0.643	0.64	0.626	0.641	0.659
0.1 µM, coculture fibroblast: H6231	0.906	0.804	0.683	0.677	0.597	0.586	0.552	0.533	0.526
0.1 µM, coculture fibroblast: HADF	0.945	0.861	0.77	0.673	0.6	0.585	0.574	0.571	0.565
0.1 µM, coculture fibroblast: HCFa	0.8762	0.7635	0.689	0.586	0.52	0.509	0.478	0.477	0.447
0.1 µM, coculture fibroblast: HCPF	0.853	0.93	0.813	0.744	0.643	0.602	0.577	0.551	0.525
0.1 µM, coculture fibroblast: HHSteC	0.914	0.789	0.706	0.599	0.532	0.504	0.489	0.483	0.457
0.1 µM, coculture fibroblast: HMF	0.87	0.75	0.662	0.619	0.53	0.496	0.472	0.4701	0.4719
0.1 µM, coculture fibroblast: HPFa	0.93204	0.876	0.743	0.633	0.5611	0.528	0.499	0.486	0.451
0.1 µM, coculture fibroblast: HUF	0.8751	0.733	0.691	0.553	0.488	0.476	0.465	0.47	0.475
0.1 µM, coculture fibroblast: Hs27A	0.859	0.777	0.678	0.572	0.525	0.529	0.52	0.524	0.508
0.1 µM, coculture fibroblast: Hs343T	0.91	0.76	0.653	0.608	0.502	0.479	0.454	0.452	0.465
0.1 µM, coculture fibroblast: WS1	0.847	0.7119	0.68	0.579	0.504	0.486	0.455	0.465	0.473
1 µM, coculture fibroblast: C12385	0.8525	0.724	0.754	0.652	0.607	0.609	0.602	0.634	0.663
1 µM, coculture fibroblast: H6013	0.8936	0.838	0.8	0.741	0.692	0.696	0.709	0.736	0.728
1 µM, coculture fibroblast: H6019	0.783	0.681	0.671	0.571	0.536	0.53	0.522	0.524	0.52
1 µM, coculture fibroblast: H6076	0.866	0.808	0.755	0.708	0.645	0.647	0.656	0.658	0.684
1 µM, coculture fibroblast: H6231	0.872	0.907	0.704	0.617	0.516	0.477	0.433	0.411	0.414
1 µM, coculture fibroblast: HADF	0.8931	0.774	0.687	0.584	0.505	0.493	0.467	0.478	0.465
1 µM, coculture fibroblast: HCFa	0.874	0.778	0.705	0.589	0.499	0.476	0.452	0.444	0.426
1 µM, coculture fibroblast: HCPF	0.898	0.781	0.6912	0.6313	0.525	0.503	0.504	0.475	0.483
1 µM, coculture fibroblast: HHSteC	0.9221	0.8077	0.77	0.688	0.637	0.612	0.602	0.601	0.581
1 µM, coculture fibroblast: HMF	0.869	0.744	0.685	0.611	0.497	0.475	0.466	0.458	0.466
1 µM, coculture fibroblast: HPFa	0.9176	0.836	0.7476	0.628	0.559	0.538	0.51	0.504	0.4852
1 µM, coculture fibroblast: HUF	0.8726	0.751	0.694	0.55	0.493	0.464	0.447	0.445	0.454
1 µM, coculture fibroblast: Hs27A	0.888	0.8333	0.719	0.619	0.556	0.571	0.556	0.58	0.56
1 µM, coculture fibroblast: Hs343T	0.8698	0.754	0.689	0.641	0.535	0.5006	0.4818	0.4813	0.5032
1 µM, coculture fibroblast: WS1	0.821	0.718	0.654	0.532	0.462	0.451	0.426	0.44	0.45
10 µM, coculture fibroblast: C12385	0.872	0.751	0.704	0.589	0.51	0.477	0.458	0.459	0.464
10 µM, coculture fibroblast: H6013	0.918	0.867	0.813	0.769	0.732	0.744	0.749	0.767	0.757
10 µM, coculture fibroblast: H6019	0.824	0.7129	0.72	0.631	0.604	0.595	0.586	0.585	0.577
10 µM, coculture fibroblast: H6076	0.9142	0.798	0.754	0.729	0.685	0.696	0.694	0.707	0.721
10 µM, coculture fibroblast: H6231	0.9246	0.815	0.677	0.625	0.528	0.503	0.447	0.425	0.409
10 µM, coculture fibroblast: HADF	0.925	0.867	0.806	0.691	0.603	0.573	0.555	0.546	0.53
10 µM, coculture fibroblast: HCFa	0.921	0.857	0.816	0.758	0.6858	0.691	0.6828	0.698	0.685
10 µM, coculture fibroblast: HCPF	0.964	0.8435	0.745	0.677	0.563	0.524	0.497	0.459	0.442
10 µM, coculture fibroblast: HHSteC	0.90929	0.806	0.704	0.606	0.541	0.519	0.509	0.508	0.499
10 µM, coculture fibroblast: HMF	0.9102	0.776	0.699	0.65	0.566	0.537	0.513	0.499	0.495
10 µM, coculture fibroblast: HPFa	0.9172	0.8666	0.717	0.573	0.499	0.46	0.442	0.434	0.415
10 µM, coculture fibroblast: HUF	0.8828	0.737	0.709	0.572	0.494	0.459	0.435	0.437	0.441
10 µM, coculture fibroblast: Hs27A	0.9106	0.8681	0.7894	0.6889	0.627	0.634	0.61	0.615	0.596
10 µM, coculture fibroblast: Hs343T	0.968	0.812	0.716	0.629	0.499	0.451	0.409	0.395	0.391
10 µM, coculture fibroblast: WS1	0.8727	0.749	0.705	0.588	0.519	0.498	0.464	0.46	0.461
